Results taken from patent EP1054668B1 (CENTRE NATIONAL DE LA RECHERCHE SCIENTIFIQUE (CNRS), priority 1998, dated 1999).

Test system: rats pigmentés Brown-Norway

Nc1nc2ccc(OC(F)(F)F)cc2s1 [riluzole, 2-amino-6-trifluoromethoxy benzothiazole]
protection (ERG) à des temps plus courts de reperfusion (2 days after ischemia, local application before ischemia, compared with the other regimens): la protection la plus efficace | amplitude de l'onde "b" (7 days reperfusion, all routes (IP or local) and timings (before or after ischemia)): ~75 % de la valeur contrôle | ondes "a" et "b" de l'ERG (local application, pre- or post-treatment, one week of reperfusion): proches de l'amplitude de celles d'animaux "Témoins" | amplitude des ondes "a" et "b" chez des rats non-ischémiés (non-ischemic rats treated with riluzole): n'est pas affectée par le traitement
